Among the data in PMC5477285 are binding values, retold here.

Chains of the proteins cited; added tags and fusions are not shown. Residues count along the entry.
UniProt Q00960, residues 27-1482: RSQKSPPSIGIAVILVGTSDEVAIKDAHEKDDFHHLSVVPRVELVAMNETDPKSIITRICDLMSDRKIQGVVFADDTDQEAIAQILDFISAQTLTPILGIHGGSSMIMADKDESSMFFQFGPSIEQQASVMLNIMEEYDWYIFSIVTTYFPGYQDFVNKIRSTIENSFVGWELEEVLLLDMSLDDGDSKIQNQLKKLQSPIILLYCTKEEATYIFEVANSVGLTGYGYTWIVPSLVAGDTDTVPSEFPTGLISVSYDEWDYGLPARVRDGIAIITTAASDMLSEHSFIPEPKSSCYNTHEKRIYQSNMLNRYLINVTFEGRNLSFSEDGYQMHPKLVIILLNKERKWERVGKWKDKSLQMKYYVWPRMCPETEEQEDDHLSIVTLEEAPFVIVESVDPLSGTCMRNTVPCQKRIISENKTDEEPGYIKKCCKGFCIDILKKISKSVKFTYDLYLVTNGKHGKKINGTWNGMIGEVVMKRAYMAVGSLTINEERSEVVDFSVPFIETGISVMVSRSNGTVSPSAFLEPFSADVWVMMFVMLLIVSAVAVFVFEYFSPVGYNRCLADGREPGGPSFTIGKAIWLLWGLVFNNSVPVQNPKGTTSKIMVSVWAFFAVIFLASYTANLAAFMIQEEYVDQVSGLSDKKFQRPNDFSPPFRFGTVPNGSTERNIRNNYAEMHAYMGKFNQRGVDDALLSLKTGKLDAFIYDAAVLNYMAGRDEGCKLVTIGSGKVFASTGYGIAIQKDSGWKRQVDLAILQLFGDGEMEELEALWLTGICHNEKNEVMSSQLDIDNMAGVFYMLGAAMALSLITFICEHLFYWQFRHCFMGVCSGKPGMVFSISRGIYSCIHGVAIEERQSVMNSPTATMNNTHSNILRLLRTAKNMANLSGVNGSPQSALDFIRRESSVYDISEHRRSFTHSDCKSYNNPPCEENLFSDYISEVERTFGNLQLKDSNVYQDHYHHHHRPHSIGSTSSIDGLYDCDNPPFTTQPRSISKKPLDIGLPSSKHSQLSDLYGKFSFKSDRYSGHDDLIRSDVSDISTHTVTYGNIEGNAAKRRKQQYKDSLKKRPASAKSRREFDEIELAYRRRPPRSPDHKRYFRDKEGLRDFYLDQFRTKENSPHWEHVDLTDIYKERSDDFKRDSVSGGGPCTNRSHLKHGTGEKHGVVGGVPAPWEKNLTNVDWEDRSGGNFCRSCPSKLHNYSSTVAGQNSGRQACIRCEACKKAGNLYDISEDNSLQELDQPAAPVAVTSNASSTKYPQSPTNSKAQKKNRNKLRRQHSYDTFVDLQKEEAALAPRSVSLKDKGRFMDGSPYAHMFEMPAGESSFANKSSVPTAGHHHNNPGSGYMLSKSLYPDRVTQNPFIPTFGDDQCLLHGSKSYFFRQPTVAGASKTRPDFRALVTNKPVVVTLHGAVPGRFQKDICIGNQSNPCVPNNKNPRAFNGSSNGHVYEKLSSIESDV

No constants are given. Whether binding was seen depends on the method and setting. Binding seen in cells or lysates may run through a third protein. Some entries that bind do so weakly or less than the wild type.

The target in test [1] is NMDA receptor subunit GluN2A (NR2A-SEP) (UniProt Q00959). The test is described as follows: co-IP; transfected HeLa cells lysed in RIPA buffer; lysates incubated on ice overnight with anti-flag (0.1 ug) or anti-GFP (1 ug) antibody, Protein G-Agarose, washed with 1x RIPA buffer, western blot.
The target of test [2] is NMDA receptor subunit GluN2B (NR2B-SEP) (UniProt Q00960). The description is as above.

For “β-arrestin-2 (Arrb2-flag) (from UniProt P29067 1-410)”, the binding result in test [1] was “no binding”; in test [2], “binds”.
